# Reference: PubChem BioAssay AID504467 (National Center for Advancing Translational Sciences (NCATS), 2011)
# In all, about 330,000 compounds went through this assay and about 7,700 (2.3%) were called active. The inconclusive results got no clear call from the source; some entries with a clear call stand among them for comparison. Calls come from the whole dose curve; as a rule, active = well fitted inhibition curve with a large enough effect; inconclusive = small, poorly fitted or top-dose-only effect, or effect the other way; inactive = flat fitted curve, though single readings scatter. Potencies of inconclusive entries are doubtful fits and often do not repeat.
# Assay: qHTS screen for small molecules that inhibit ELG1-dependent DNA repair in human embryonic kidney (HEK293T) cells expressing luciferase-tagged ELG1; note: nearly all actives have a fitted effect of over 55% in size
# Conditions: HEK293T ELG1-luciferase reporter, luminescence, 16 h, DNA damage induced by 5-fluorouridine; series mostly up to 46.1 µM
# Procedure, shortened: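 Reporter activity after DNA damage by 5-fluorouridine is monitored. Compound-treated cells incubate 16 hr at 37 °C, then ONE-Glo is added for 30 min before luminescence reading.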
# Potency is the fitted concentration of half-maximal effect.
row,SMILES,Potency
1,Cc1cc(C)c(OCCCCCn2ccnc2)c(C)c1,inactive
2,COc1ccccc1OCC(=O)Nc1sc2c(c1C(N)=O)CCC2,"inconclusive: 3.66 µM [activator, single point]"
3,C[C@H]1CN([C@@H](C)CO)C(=O)Cc2cc(NC(=O)C3CC3)ccc2O[C@H]1CN(C)Cc1ccc(Oc2ccccc2)cc1,"inconclusive: 29.1 µM [inhibitor, single point]"
4,COc1ccc(C(=O)Nc2ccc(N3CCN(C(=O)C(C)C)CC3)cc2)cc1[N+](=O)[O-],inactive
5,Cc1ccc(C)c(N(Cc2cc3ccc(C)cc3[nH]c2=O)C(=O)c2ccco2)c1,"inconclusive: 25.9 µM [inhibitor, single point]"
6,O=C(c1ccccc1)c1ccc2ccccc2n1,"inconclusive: 20.6 µM [activator, single point]"
7,CCc1ccccc1NC(=O)CSC1=C(C#N)C(c2ccc3c(c2)OCO3)C2=C(CCCC2=O)N1 (stereo unspecified),"inconclusive: 20.6 µM [inhibitor, single point]"
8,O=C(c1ccccc1)N1CCN(c2ncnc3sc4c(c23)CCC4)CC1,active: 9.2 µM
9,COC(=O)Cc1ccc(OC(=O)c2cccc(S(=O)(=O)N3CCN(C)CC3)c2)cc1,inactive
10,c1ccc(Cn2nc(-c3ccccc3)nc2-c2ccccc2)cc1,"inconclusive: 18.4 µM [activator, partial curve]"
11,c1ccc(-c2nc(-c3ccccn3)nc(-c3ccccn3)n2)nc1,"inconclusive: 10.3 µM [inhibitor, partial curve, poor fit]"
12,Cc1cccc(NC(=O)c2sc(C)nc2C)c1,"inconclusive: 18.4 µM [activator, partial curve]"
13,CC/C(=N\NC(=O)c1ccc(N(C)C)cc1)c1ccccc1,"inconclusive: 13 µM [activator, partial curve]"
14,O=C(Nc1ccc(Br)cn1)c1ccc2ccccc2c1,"inconclusive: 6.31 µM [activator, single point]"
15,COc1cccc(C(=O)Nc2cc(C)ccc2NC(=O)COc2ccccc2)c1,"inconclusive: 23.1 µM [inhibitor, partial curve]"
16,OCCN1CCN(c2nc(-c3ccccc3)nc3c2oc2ccccc23)CC1,"inconclusive: 29.1 µM [inhibitor, single point]"
17,COc1cccc(/C(C)=N/NC(=O)c2ccc(N(C)C)cc2)c1,"inconclusive: 9.2 µM [activator, partial curve]"
18,CCOc1ccc2nc(-c3ccccc3)[nH]c2c1,"inconclusive: 0.366 µM [activator, full curve, poor fit]"
19,O=C(COC(=O)[C@H](Cc1ccccc1)NC(=O)c1ccco1)NCc1ccccc1,"inconclusive: 29.1 µM [activator, partial curve, poor fit]"
20,FC(F)(F)c1cccc(N2CCN(c3ccc4nnc(-c5ccccc5)n4n3)CC2)c1,"inconclusive: 25.9 µM [inhibitor, single point]"
21,COc1ccc(-n2c(C)cc(/C=N/Nc3nnc(C)n3N)c2C)cc1,inactive
22,O=C(NNC(=O)c1ccccc1Cl)c1ccncc1,"inconclusive: 14.6 µM [activator, partial curve, poor fit]"
23,O=C(CCN1C(=O)c2ccccc2C1=O)Nc1ccncc1,inactive
24,CC(=O)c1c(C)[nH]c(=S)c(C#N)c1-c1ccc(Cl)cc1,inactive

# Looked up above:
# Entry of c1ccc(-c2nc(-c3ccccn3)nc(-c3ccccn3)n2)nc1 under Potency: inconclusive: 10.3 µM [inhibitor, partial curve, poor fit]
# Entry of COc1ccc(C(=O)Nc2ccc(N3CCN(C(=O)C(C)C)CC3)cc2)cc1[N+](=O)[O-] under Potency: inactive
# Entry of Cc1cccc(NC(=O)c2sc(C)nc2C)c1 under Potency: inconclusive: 18.4 µM [activator, partial curve]

# Continued.

row,SMILES,Potency
1,Cc1cc(C)nc(-n2nc(C)cc2Nc2ccccc2)n1,"inconclusive: 0.0231 µM [activator, full curve, poor fit]"
2,COc1ccc(-c2nnc3n2N=C(C)CS3)cc1,inactive
3,CCOC(=O)c1cc(-c2ccccc2)sc1NC(=O)C(C)OC(=O)c1ccncc1 (stereo unspecified),"inconclusive: 23.1 µM [inhibitor, single point]"
4,O=c1cc(Nc2ccc3c(c2)OCCO3)[nH]c(=O)n1C1CCCCC1,"inconclusive: 4.11 µM [inhibitor, partial curve, poor fit]"
5,O=C(NCc1ccccn1)c1ccccc1-c1ccccc1,inactive
6,CCN(CC)CCn1c(=N)n(CC(=O)c2ccc(C)cc2)c2ccccc21,inactive
7,COc1ccc(N/C=C\C(=O)c2ccc3c(c2)OCO3)cc1,"inconclusive: 4.61 µM [activator, partial curve]"
8,CC(C)C(NC(=O)c1ccccc1)C(=O)N1CCN(C/C=C/c2ccccc2)CC1 (stereo unspecified),inactive
9,Cc1ccc(C)c(N2N=C(C(=O)Nc3ccccc3N3CCCC3)CCC2=O)c1,"inconclusive: 32.6 µM [inhibitor, partial curve, poor fit]"
10,O=C(NCc1ccco1)c1ccc2c(c1)CCO2,"inconclusive: 16.4 µM [activator, single point]"
11,COCCCN(CCNC(=O)c1ccc(NC2=NC3CS(=O)(=O)CC3S2)cc1)Cc1ccco1 (stereo unspecified),"inconclusive: 3.66 µM [activator, partial curve]"
12,CCC(Nc1nc(-c2ccccc2)nc2ccccc12)C(=O)O (stereo unspecified),inactive
13,CC(C)N1C(=O)C(O)(C2COC(C)(C)CC2=O)c2ccccc21 (stereo unspecified),inactive
14,CC(=O)Nc1ccc(NC(=O)CN2C(=O)NC3(CCCCCCC3)C2=O)cc1,"inconclusive: 32.6 µM [activator, partial curve, poor fit]"
15,COc1cccc(C(=O)c2sc(NC(C)C)nc2N)c1,active: 20.6 µM
16,Cc1csc(NC(=O)C2CCCCC2)n1,"inconclusive: 29.1 µM [activator, single point]"
17,COc1ccc(C(=O)Nc2ccc(Cl)cc2C(=O)NCc2ccco2)cc1OC,active: 16.4 µM
18,CN1CCN(S(=O)(=O)c2cccc(C(=O)N(Cc3nnc(-c4ccc(Cl)cc4)o3)C3CC3)c2)CC1,inactive
19,CCCN(CCC)CCCNc1ccc(C(=O)Nc2cccc(OC)c2)cc1[N+](=O)[O-],"inconclusive: 29.1 µM [activator, single point]"
20,CN(C)CCN(C(=O)c1cccc2ccccc12)c1nc2cc3c(cc2s1)OCO3,"inconclusive: 20.6 µM [inhibitor, single point]"
21,COc1ccccc1C(c1nnnn1C(C)(C)C)N1CCCCCC1 (stereo unspecified),inactive
22,CCOC(=O)C1(Cc2cccc(F)c2)CCN(Cc2nc(CC)[nH]c2C)CC1,"inconclusive: 29.1 µM [inhibitor, single point]"
23,CC1CCCN(C(C(=O)Nc2ccc3c(c2)OCO3)c2ccccc2)C1 (stereo unspecified),inactive
24,CC(C)C(=O)N1CCN(c2ccc([N+](=O)[O-])cc2Cl)CC1,inactive

row,SMILES,Potency
1,CCCCCCSc1cccc(-c2nc3ccc(C)cn3c2NCc2ccccc2)c1,inactive
2,Cc1cc(C(F)F)n2ncc(C(=O)NCc3ccc(F)cc3)c2n1,"inconclusive: 23.1 µM [inhibitor, single point]"
3,CC(=O)N1C(O)CC(C)N1c1ccccc1 (stereo unspecified),inactive
4,CCc1ccc(NC(=O)[C@H](C)NC(=O)C2CCN(C(=O)[C@@H](N)Cc3ccccc3)CC2)cc1,"inconclusive: 1.83 µM [activator, partial curve, poor fit]"
5,CN(CCC1CCOCC1)Cc1cn[nH]c1-c1ccc(-c2ccccc2)cc1,"inconclusive: 16.4 µM [activator, single point]"
6,N#C/C(=C/c1ccc(O)c(O)c1)C(=O)NCc1ccc(Cl)cc1,inactive
7,COc1ccc(CN(C)C(=O)C(Cc2ccccc2)NC(=O)c2ccccc2)c(OC)c1 (stereo unspecified),"inconclusive: 29.1 µM [inhibitor, single point]"
8,O=C1N=c2ccccc2=C1c1c(O)n(-c2cccc(F)c2)[nH]c1=O,inactive
9,CCOc1ccc(C(C(=O)NC2CCCC2)N(CCCO)C(=O)c2ccc(-c3ccccc3)[nH]2)cc1 (stereo unspecified),inactive
10,COC(=O)c1ccccc1NC(=S)NC(=O)c1cccc2ccccc12,inactive
11,CC(C)C(=O)c1cn(CC(=O)NCc2ccco2)c2ccccc12,"inconclusive: 16.4 µM [activator, single point]"
12,O=S(=O)(c1ccccc1F)N1CCN(c2nc(-c3cccnc3)nc3ccccc23)CC1,active: 18.3 µM
13,C[C@@H](NC(=O)c1nc[nH]c1C(=O)N[C@H](C)c1ccccc1)c1ccccc1,inactive
14,C=CCc1ccc(OCC(O)CN2CCN(c3ccccc3)CC2)c(OC)c1 (stereo unspecified),"inconclusive: 0.231 µM [inhibitor, single point]"
15,CCOC(=O)Cc1cc(=O)[nH]c(Nc2nc3ccccc3o2)n1,"inconclusive: 25.9 µM [activator, single point]"
16,COc1ccccc1/C=C/C(=O)NC(=S)NCC1CCCO1 (stereo unspecified),"inconclusive: 29.1 µM [inhibitor, partial curve, poor fit]"
17,CS(=O)(=O)c1ccc(C(=O)Nc2cccc(-c3nc4ccccc4[nH]3)c2)cc1,inactive
18,CCOc1ccc(C(CCc2ccccc2)NC(=O)c2ccc(OC)c(OC)c2)cc1OCC (stereo unspecified),"inconclusive: 10.3 µM [inhibitor, partial curve, poor fit]"
19,CN1CCCN(S(=O)(=O)c2ccccc2)c2nc3ccccc3nc21,"inconclusive: 4.11 µM [inhibitor, partial curve, poor fit]"
20,Cc1ccc(NC(=O)Nc2cccc([N+](=O)[O-])c2)nc1,"inconclusive: 20.6 µM [activator, partial curve]"
21,Cc1noc(C)c1COc1ccccc1C(=O)NCCc1ccccc1,"inconclusive: 8.2 µM [activator, single point]"
22,O=C(NCCc1cnc[nH]1)Nc1cccc(C(F)(F)F)c1,"inconclusive: 3.55 µM [activator, partial curve, poor fit]"
23,COc1cc(NC(=O)C2=C(C)OCCS2)c(Cl)cc1C(=O)NCCN(C)C,inactive
